Data published in PubChem BioAssay AID463205 (Broad Institute, 2010).
Hit rate of the full screen: of about 2,400 compounds, about 20 (0.8%) were called active.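 Rule for the calls: active = AC50 no more than ten times the highest tested concentration, or full inhibition at every dose giving a flat fit (cut at about 30 µM in these data); inconclusive = flat fit with activity between 30% and 70%, or poor-quality invalid fit; inactive = AC50 more than ten times the top tested dose.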 Some of the results follow.

Test: luciferase-based ADP detection interference – biochemical, luminescence, cell-free, homogeneous, artefact control for GSK-3a inhibitor project, dose response (AID 463205);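 note: kinase-free counter-screen against the ADP-Glo detection reagents only; potency is for inhibitors that reduce the luminescence signal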
Conditions: Cell-free ADP-Glo detection reagents, 5 uM ADP

AC50, inactive:
O=C(CCSc1nc(-c2ccc3c(c2)OCO3)cc(C(F)(F)F)n1)NCc1ccco1 > 30 µM
O=C(O)c1ccc2c(c1Nc1ccccc1)C(=O)c1ccccc1C2=O > 30 µM
O=C(O)c1ccc2c(c1)C(=O)N(CCCCCCCN1C(=O)c3ccc(C(=O)O)cc3C1=O)C2=O > 30 µM
COc1ccc(CCNC(=O)CSc2nc3[nH]ncc3c(=O)n2-c2cccc(C(F)(F)F)c2)cc1OC > 30 µM
Cc1ccc(C2C(C#N)=C(N)Oc3n[nH]c(-c4cccnc4)c32)o1 (stereo not given) > 30 µM
CC(=O)C(Sc1ccc2nnc(-c3ccc(C)cc3)n2n1)C(C)=O > 30 µM
CCSc1nc2sc3c(c2c(=O)n1CC)CC(C)(C)OC3 > 30 µM
COCc1nnc(NC(=O)CCCCCN2C(=O)c3ccccc3C2=O)s1 > 30 µM
C#CCOCCOCCOCCNc1nc(N2CCN(C(=O)CCCCCCCCCCNC(=O)[C@H](CCCCN)n3cc(C)nn3)CC2)nc(N2CCN(C(=O)CCCCCCCCCCNC(=O)[C@H](CCCN=C(N)N)n3cc(C[C@@H](C)CC)nn3)CC2)n1 > 30 µM
c1csc(CNc2ncnc3sccc23)c1 > 30 µM
COc1ccc(OC)c(/C=N/NC(=O)c2nnn(-c3nonc3N)c2-c2cccs2)c1 > 30 µM
CN(c1nc2nonc2nc1NC1CC1)C1CCOC1 (stereo not given) > 30 µM
CC1(C)Cc2c(sc3c2C2=NCCN2C=N3)CS1 > 30 µM
CCOC(=O)c1sc(NC(=O)C2CCC2)cc1C > 30 µM
O=[N+]([O-])c1ccc(O)c(/C=N/n2c(-c3ccccc3)n[nH]c2=S)c1 > 30 µM
COc1cccc(NC(=O)c2nnn(Cc3ccc(Br)cc3F)c2N)c1 > 30 µM
COc1ccc(/C=C2\Oc3cc(OCC(=O)N4CCC[C@H]4C(=O)O)ccc3C2=O)cc1OC > 30 µM
CCc1cc2c3c(c1)C(C)CC(C)(C)N3C(=O)/C2=C1\SC(=O)NC1=O (stereo not given) > 30 µM
O=C(Nc1cc(F)cc(F)c1)c1ccc(NCCCN2CCCCCC2)c([N+](=O)[O-])c1 > 30 µM
Fc1ccccc1CSc1nnc(-c2cccnc2)o1 > 30 µM
CCOc1cccc(-c2c(C(=O)N/N=C/c3ccco3)nnn2-c2nonc2N)c1 > 30 µM
O=c1cc(-c2ccsc2)oc2ccccc12 > 30 µM
COc1ccc(-c2cn3cccnc3n2)cc1NC(=O)C(C)C > 30 µM
COC(=O)CSc1ncnc2c1sc1nc3c(cc12)COC(C)(C)C3 > 30 µM
Cc1csc(NC(=O)C2CCCN2C(=O)OCC(C)C)n1 (stereo not given) > 30 µM
COc1cc2c(cc1OC)C(c1ccc(C)o1)CC(=O)N2 (stereo not given) > 30 µM
COc1ccc(C(=O)NCC(=O)N/N=C/C=C/c2ccccc2)cc1OC > 30 µM
O=C(NC1(C(F)(F)F)NC(=O)N(Cc2cccnc2)C1=O)c1ccccc1 (stereo not given) > 30 µM
COc1cc(/C=N/NC(=O)c2ccncc2)ccc1OCCN1CCCCC1 > 30 µM
CCCCc1ccc(NC(=O)N[C@H](C(=O)O)C(C)C)cc1 > 30 µM
Cc1cc(C)nc(NC(=O)/C=C/c2cccs2)c1 > 30 µM
Cc1ccc(C(=O)N2NC(c3ccccc3F)C3C(=O)N(c4cccc(C)c4)C(=O)C32)cc1 (stereo not given) > 30 µM
Cc1cc(C(C#N)c2ccccc2F)n2ncnc2n1 (stereo not given) > 30 µM
CC(=O)c1cc(-c2ccc(F)cc2)n(CCC(=O)NC(C)(C)C)c1C > 30 µM
C#CCSc1nnc(-c2ccc(O)cc2)o1 > 30 µM
COC(=O)c1ccc(CSc2n[nH]c(=S)s2)o1 > 30 µM
CCOC(=O)c1[nH]c2c(c1-c1ccc(OC)cc1)C(=O)CC(c1ccc(OC)c(OC)c1)C2 (stereo not given) > 30 µM
Cn1cc([N+](=O)[O-])c(C(=O)Nc2cnn(Cc3ccc(F)cc3)c2)n1 > 30 µM
Cc1onc(-c2ccccc2Cl)c1C(=O)Nc1cccc(-c2nc3ncccn3c2C)c1 > 30 µM
O=C1/C(=C/c2ccc(O)c(O)c2)Oc2cc(O)ccc21 > 30 µM
COc1ccc(Nc2nc(-c3ccccc3)cs2)cc1 > 30 µM
CCC(=O)C1CCCN(C(=O)CCc2nnc(-c3ccc4c(c3)OCO4)o2)C1 (stereo not given) > 30 µM
O=C1OCCC/C1=C\c1ccc2c(c1)OCO2 > 30 µM
CSc1cccc(NC(=O)CN(C)S(=O)(=O)c2cnc[nH]2)c1 > 30 µM
C[C@H](CO)N1C[C@H](C)[C@@H](CN(C)S(=O)(=O)c2ccc(F)cc2)Oc2c(NC(=O)Cc3ccccc3)cccc2C1=O > 30 µM
O=C1N/C(=N\S(=O)(=O)Cc2ccccc2)S/C1=C/c1cccc([N+](=O)[O-])c1 > 30 µM
CC[n+]1c(/C=C/N(C)c2ccccc2)n(-c2ccccc2)c2ccc(-c3nc4ccccc4s3)cc21 > 30 µM
COc1ccc(C(=O)c2ccccc2Cl)cc1 > 30 µM
COc1ccc(C(=O)c2cc(C(C)=O)c(Nc3ccccc3)s2)cc1 > 30 µM
CCCC(NS(=O)(=O)c1ccc(OC)cc1)C(=O)O (stereo not given) > 30 µM
COc1ccccc1NC(=O)c1cc2ccc(O)cc2o/c1=N\O > 30 µM
NC1=NC(=O)/C(=C\c2ccco2)S1 > 30 µM
O=[N+]([O-])c1ccc(-c2nnc(-c3ccccc3)c(NCCCO)n2)cc1 > 30 µM
c1ccc(-c2noc(-c3ccc4c(c3)OCO4)n2)cc1 > 30 µM
Cc1c(C(=O)N2CCOCC2)oc2ccc(S(=O)(=O)N3CCCC3)cc12 > 30 µM
COc1cccc(N=C2NC(=O)/C(=C/c3cc([N+](=O)[O-])ccc3O)S2)c1 > 30 µM
CCCCOC(=O)Nc1nnc(COc2ccccc2)s1 > 30 µM
Oc1ccc2cccnc2c1 > 30 µM
O=c1[nH]c2c(s1)C(c1cccnc1)C1C3CCC(C3)C1S2 (stereo not given) > 30 µM
COc1ccccc1C(=O)NC(C)c1ccccc1 (stereo not given) > 30 µM
O=c1[nH]nc(SCCS(=O)(=O)c2ccc(F)cc2)n1-c1ccccc1C(F)(F)F > 30 µM
COc1ccc(OC)c(/C=C2\NC(=O)NC2=O)c1 > 30 µM
CC(=O)c1c(O)ccc2c(-c3ccccc3)cc(=O)oc12 > 30 µM
COC(=O)c1c(NC(=O)CN2C(=O)NC3(CCC(C)CC3)C2=O)sc2c1CCC2 (stereo not given) > 30 µM
COC(=O)/C=C1/S/C(=N/NC(=O)c2ccccc2OC)NC1=O > 30 µM
Clc1ccccc1C1=Nn2c(nnc2-c2ccncc2)SC1 > 30 µM
C=CCNc1nc(N)c(C(=O)c2ccc3c(c2)OCO3)s1 > 30 µM
Oc1ccc(-c2csc(Nc3cccnc3)n2)cc1 > 30 µM
COc1ccc(C2=Nn3c(nnc3-c3cccnc3)SC2)cc1OC > 30 µM
Cn1c(=O)c2[nH]cnc2n(-c2ccccc2)c1=O > 30 µM
C#CCOCCOCCOCCNc1nc(N2CCN(C(=O)CCCCCCCCCCNC(=O)[C@H](CCCCN)n3cc(C)nn3)CC2)nc(N2CCN(C(=O)CCCCCCCCCCNC(=O)[C@@H]([C@H](C)CC)n3cc(CCCCCN)nn3)CC2)n1 > 30 µM
Fc1ccccc1-c1nnc2ccc3ccccc3n12 > 30 µM
COc1c(NC(C)=O)c2ccccc2c2ccccc12 > 30 µM
CN1CCN(c2ccc(NC(=O)c3ccc(Br)o3)cc2)CC1 > 30 µM
COc1cc(N/N=C/c2ccccc2O)ncn1 > 30 µM
Cc1cccc(C)c1OCC(O)CNC(C)(C)C (stereo not given) > 30 µM
N#CC1=C(S)N(c2ccccc2)C(c2ccco2)NC1=O (stereo not given) > 30 µM
CCOC(=O)c1cnc2ccc(OCC)cc2c1N1CCN(c2ccccc2OC)CC1 > 30 µM
Cc1ccnc(NC(=O)CCC(=O)N(CC(=O)NCc2ccc(F)cc2)CC2CCCO2)c1 (stereo not given) > 30 µM
CC(=O)N(C)c1ccc(N=Cc2cc3c(cc2[N+](=O)[O-])OCO3)cc1 > 30 µM
CCc1c(C)nc2c(C#N)c(C)[nH]n2c1=O > 30 µM
CC(C)OC(=O)c1nnn(-c2nonc2N)c1CN1CCCCCC1 > 30 µM
CCN1/C(=C\C(C)=O)Sc2ccc(OC)cc21 > 30 µM
COc1ccccc1C(=O)NNC(=O)c1cccc(F)c1 > 30 µM
COc1ccc(C(CNc2ccc(S(=O)(=O)N3CCCC3)cc2[N+](=O)[O-])N2CCCC2)cc1 (stereo not given) > 30 µM
COc1cc2c(C#N)c(N3CCCC3)nc(N)c2c(N)n1 > 30 µM
CCCCCCCCCCCCCCCC[N+](C)(C)CC > 30 µM
O=C(c1ccc(F)cc1)c1cnc(Nc2ccccc2)s1 > 30 µM
CCOc1ccc2ccccc2c1/C=N/n1cncn1 > 30 µM
COc1ccc(C(=O)c2sc(NC(C)C)nc2N)cc1OC > 30 µM

By substructure, the compounds so far containing a thiophene ring, fused or not
AC50, inactive:
CCSc1nc2sc3c(c2c(=O)n1CC)CC(C)(C)OC3 > 30 µM
c1csc(CNc2ncnc3sccc23)c1 > 30 µM
COc1ccc(OC)c(/C=N/NC(=O)c2nnn(-c3nonc3N)c2-c2cccs2)c1 > 30 µM
CC1(C)Cc2c(sc3c2C2=NCCN2C=N3)CS1 > 30 µM
CCOC(=O)c1sc(NC(=O)C2CCC2)cc1C > 30 µM
O=c1cc(-c2ccsc2)oc2ccccc12 > 30 µM
COC(=O)CSc1ncnc2c1sc1nc3c(cc12)COC(C)(C)C3 > 30 µM
Cc1cc(C)nc(NC(=O)/C=C/c2cccs2)c1 > 30 µM
COc1ccc(C(=O)c2cc(C(C)=O)c(Nc3ccccc3)s2)cc1 > 30 µM
COC(=O)c1c(NC(=O)CN2C(=O)NC3(CCC(C)CC3)C2=O)sc2c1CCC2 (stereo not given) > 30 µM

By substructure: those above with bromine (two)
AC50, inactive:
COc1cccc(NC(=O)c2nnn(Cc3ccc(Br)cc3F)c2N)c1 > 30 µM
CN1CCN(c2ccc(NC(=O)c3ccc(Br)o3)cc2)CC1 > 30 µM
